Laboratory results published in article doi:10.1101/2024.07.01.601608.

Amino acid sequences for entries named in this document (tags omitted).
UniProt P49336: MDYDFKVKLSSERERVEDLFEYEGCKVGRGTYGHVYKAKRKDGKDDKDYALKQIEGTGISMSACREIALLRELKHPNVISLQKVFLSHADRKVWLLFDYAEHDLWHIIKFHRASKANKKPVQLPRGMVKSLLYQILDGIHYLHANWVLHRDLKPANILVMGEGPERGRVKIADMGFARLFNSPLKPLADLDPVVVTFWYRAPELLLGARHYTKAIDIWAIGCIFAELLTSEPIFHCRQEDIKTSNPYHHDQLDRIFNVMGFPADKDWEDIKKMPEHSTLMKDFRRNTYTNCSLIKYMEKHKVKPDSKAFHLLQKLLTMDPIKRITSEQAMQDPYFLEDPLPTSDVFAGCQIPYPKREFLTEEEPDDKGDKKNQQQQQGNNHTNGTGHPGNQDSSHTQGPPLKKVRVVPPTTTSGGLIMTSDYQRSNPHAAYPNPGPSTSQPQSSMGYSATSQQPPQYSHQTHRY

Key:
[1] = target: Flag-tagged CDK8 expressed in 293-F cells (human) (UniProt P49336); assay: affinity purification with mass spectrometry
[2] = target: T1, Flag-tagged MED13 IDRc (residues 500-1069) expressed in 293-F cells (human) (UniProt Q9UHV7); assay: affinity purification with mass spectrometry
T1 sequence: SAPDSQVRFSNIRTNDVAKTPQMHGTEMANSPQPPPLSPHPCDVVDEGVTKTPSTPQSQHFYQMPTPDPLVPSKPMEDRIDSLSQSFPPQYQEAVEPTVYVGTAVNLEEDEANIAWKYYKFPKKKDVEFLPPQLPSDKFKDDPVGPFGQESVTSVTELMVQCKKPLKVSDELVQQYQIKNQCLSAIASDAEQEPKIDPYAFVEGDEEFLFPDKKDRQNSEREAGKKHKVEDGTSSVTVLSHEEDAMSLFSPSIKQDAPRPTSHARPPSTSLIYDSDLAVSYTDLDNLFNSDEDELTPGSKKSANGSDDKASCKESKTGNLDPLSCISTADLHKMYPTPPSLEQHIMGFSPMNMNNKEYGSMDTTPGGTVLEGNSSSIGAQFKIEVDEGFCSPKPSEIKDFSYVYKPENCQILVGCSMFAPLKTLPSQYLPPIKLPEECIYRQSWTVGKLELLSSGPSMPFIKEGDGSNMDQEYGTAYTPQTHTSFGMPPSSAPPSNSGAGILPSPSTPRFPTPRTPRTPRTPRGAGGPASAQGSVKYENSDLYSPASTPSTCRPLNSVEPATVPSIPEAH

binding [1]: no binding | binding [2]: no binding
B1: MED26 (endogenous) (protein, UniProt O95402 1-600)
chain: MTAAPASPQQIRDRLLQAIDPQSNIRNMVAVLEVISSLEKYPITKEALEETRLGKLINDVRKKTKNEELAKRAKKLLRSWQKLIEPAHQHEAALRGLAGATGSANGGAHNCRPEVGAAGPPRSIHDLKSRNDLQRLPGQRLDRLGSRKRRGDQRDLGHPGPPPKVSKASHDPLVPNSSPLPTNGISGSPESFASSLDGSGHAGPEGSRLERDENDKHSGKIPVNAVRPHTSSPGLGKPPGPCLQPKASVLQQLDRVDETPGPPHPKGPPRCSFSPRNSRHEGSFARQQSLYAPKGSVPSPSPRPQALDATQVPSPLPLAQPSTPPVRRLELLPSAESPVCWLEQPESHQRLAGPGCKAGLSPAEPLLSRAGFSPDSSKADSDAASSGGSDSKKKKRYRPRDYTVNLDGQVAEAGVKPVRLKERKLTFDPMTRQIKPLTQKEPVRADSPVHMEQQSRTELDKQEAKASLQSPFEQTNWKELSRNEIIQSYLSRQSSLLSSSGAQTPGAHHFMSEYLKQEESTRQGARQLHVLVPQSPPTDLPGLTREVTQDDLDRIQASQWPGVNGCQDTQGNWYDWTQCISLDPHGDDGRLNILPYVCLD

These are yes or no findings as the source states them, for the method shown. Binding seen in cells or lysates may run through a third protein. Here binding means that the protein was enriched with, or labelled near, the bait; the list need not be complete. No binding means not detected with the bait. For some assays here: Where a sequence is shown, tags or fusion partners need not be part of it.
